Laboratory results reported in the supplement of paper PMC12819154, “High-throughput peptide-centric local stability assay extends protein–ligand identification to membrane proteins, tissues and bacteria” (Nature Structural & Molecular Biology, 2025).
This is one part of the list. Small differences around the control level are noise.

Protein sequences, listed by entry. Tags and fused reporters are not part of them. Lines headed by an entry give the natural chain unless they say otherwise; changes in a name come on top.
UniProt P40939: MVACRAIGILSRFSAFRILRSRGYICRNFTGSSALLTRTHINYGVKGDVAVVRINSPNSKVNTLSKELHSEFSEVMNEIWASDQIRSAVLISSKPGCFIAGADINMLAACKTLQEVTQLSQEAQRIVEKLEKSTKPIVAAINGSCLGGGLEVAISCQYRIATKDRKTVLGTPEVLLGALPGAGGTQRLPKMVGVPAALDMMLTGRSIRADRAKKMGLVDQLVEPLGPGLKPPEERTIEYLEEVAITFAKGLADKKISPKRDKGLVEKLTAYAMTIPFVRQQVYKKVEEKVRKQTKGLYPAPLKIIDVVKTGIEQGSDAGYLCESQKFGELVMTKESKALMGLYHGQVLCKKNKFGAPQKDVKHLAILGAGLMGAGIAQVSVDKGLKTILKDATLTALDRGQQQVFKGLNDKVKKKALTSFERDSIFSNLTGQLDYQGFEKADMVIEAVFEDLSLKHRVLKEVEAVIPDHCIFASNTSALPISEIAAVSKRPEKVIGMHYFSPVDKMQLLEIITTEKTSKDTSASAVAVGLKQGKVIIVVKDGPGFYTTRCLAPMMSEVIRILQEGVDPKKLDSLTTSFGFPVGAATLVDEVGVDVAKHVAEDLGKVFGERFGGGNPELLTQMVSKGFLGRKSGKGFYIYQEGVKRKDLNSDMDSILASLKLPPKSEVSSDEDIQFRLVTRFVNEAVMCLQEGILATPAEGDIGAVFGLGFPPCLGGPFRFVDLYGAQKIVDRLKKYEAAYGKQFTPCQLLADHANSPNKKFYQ
UniProt P39060, whole entry: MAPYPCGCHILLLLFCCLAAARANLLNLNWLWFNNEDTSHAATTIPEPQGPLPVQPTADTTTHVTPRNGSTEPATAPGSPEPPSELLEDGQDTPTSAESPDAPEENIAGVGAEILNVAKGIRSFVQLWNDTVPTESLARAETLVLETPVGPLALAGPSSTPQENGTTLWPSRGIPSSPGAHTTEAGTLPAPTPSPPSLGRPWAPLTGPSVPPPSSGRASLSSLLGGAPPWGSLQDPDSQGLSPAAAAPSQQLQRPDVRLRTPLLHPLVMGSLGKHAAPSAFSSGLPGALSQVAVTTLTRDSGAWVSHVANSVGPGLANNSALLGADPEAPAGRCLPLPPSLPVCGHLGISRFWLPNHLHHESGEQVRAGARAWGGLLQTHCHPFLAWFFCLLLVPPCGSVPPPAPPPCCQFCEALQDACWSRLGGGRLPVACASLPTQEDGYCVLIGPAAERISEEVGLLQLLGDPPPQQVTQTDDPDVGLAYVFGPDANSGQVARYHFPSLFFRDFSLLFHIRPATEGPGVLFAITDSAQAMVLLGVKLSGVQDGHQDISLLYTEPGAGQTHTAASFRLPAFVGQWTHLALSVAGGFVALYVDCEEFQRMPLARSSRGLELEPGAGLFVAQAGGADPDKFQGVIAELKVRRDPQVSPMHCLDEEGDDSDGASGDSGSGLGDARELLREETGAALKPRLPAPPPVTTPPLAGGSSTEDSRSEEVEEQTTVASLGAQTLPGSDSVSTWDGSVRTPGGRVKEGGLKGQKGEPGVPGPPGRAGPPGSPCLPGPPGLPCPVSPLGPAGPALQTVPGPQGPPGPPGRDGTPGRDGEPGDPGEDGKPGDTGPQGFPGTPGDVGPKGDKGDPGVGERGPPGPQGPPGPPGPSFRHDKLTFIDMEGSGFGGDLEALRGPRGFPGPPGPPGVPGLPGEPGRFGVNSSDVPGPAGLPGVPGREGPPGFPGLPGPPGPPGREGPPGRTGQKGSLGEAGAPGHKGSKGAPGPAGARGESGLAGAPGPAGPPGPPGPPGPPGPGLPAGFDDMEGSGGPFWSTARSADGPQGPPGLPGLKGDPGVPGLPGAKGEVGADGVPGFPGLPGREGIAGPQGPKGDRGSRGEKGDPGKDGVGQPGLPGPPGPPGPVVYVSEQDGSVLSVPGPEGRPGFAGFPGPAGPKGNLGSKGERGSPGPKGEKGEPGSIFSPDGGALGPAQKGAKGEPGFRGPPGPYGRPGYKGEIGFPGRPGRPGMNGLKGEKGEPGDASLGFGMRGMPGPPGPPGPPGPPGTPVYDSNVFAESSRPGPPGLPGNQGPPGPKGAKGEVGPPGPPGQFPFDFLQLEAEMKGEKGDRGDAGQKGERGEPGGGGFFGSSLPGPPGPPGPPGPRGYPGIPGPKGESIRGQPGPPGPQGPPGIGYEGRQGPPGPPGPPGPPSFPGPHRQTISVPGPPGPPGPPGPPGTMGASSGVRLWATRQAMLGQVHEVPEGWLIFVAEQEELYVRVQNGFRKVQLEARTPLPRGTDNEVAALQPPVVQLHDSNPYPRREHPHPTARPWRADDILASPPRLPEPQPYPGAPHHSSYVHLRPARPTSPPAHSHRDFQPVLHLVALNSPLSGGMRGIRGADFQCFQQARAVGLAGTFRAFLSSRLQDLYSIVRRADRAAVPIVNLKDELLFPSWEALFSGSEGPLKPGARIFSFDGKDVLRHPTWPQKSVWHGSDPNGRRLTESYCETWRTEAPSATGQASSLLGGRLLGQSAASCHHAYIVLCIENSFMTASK
UniProt P28702: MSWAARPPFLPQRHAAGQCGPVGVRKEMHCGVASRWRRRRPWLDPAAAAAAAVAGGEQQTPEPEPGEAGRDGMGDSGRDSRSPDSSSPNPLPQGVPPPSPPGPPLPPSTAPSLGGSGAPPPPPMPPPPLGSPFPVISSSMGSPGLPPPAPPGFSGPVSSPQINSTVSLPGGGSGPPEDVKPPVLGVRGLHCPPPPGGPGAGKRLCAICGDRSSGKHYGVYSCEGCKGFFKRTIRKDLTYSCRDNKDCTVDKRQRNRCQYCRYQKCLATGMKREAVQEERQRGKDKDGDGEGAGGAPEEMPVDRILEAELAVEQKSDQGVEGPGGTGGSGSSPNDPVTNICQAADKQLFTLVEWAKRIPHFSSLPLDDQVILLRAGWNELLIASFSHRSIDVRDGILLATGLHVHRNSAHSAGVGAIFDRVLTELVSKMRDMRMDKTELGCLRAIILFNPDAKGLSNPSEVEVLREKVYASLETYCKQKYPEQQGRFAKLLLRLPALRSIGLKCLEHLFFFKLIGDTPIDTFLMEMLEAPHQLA
UniProt P39880: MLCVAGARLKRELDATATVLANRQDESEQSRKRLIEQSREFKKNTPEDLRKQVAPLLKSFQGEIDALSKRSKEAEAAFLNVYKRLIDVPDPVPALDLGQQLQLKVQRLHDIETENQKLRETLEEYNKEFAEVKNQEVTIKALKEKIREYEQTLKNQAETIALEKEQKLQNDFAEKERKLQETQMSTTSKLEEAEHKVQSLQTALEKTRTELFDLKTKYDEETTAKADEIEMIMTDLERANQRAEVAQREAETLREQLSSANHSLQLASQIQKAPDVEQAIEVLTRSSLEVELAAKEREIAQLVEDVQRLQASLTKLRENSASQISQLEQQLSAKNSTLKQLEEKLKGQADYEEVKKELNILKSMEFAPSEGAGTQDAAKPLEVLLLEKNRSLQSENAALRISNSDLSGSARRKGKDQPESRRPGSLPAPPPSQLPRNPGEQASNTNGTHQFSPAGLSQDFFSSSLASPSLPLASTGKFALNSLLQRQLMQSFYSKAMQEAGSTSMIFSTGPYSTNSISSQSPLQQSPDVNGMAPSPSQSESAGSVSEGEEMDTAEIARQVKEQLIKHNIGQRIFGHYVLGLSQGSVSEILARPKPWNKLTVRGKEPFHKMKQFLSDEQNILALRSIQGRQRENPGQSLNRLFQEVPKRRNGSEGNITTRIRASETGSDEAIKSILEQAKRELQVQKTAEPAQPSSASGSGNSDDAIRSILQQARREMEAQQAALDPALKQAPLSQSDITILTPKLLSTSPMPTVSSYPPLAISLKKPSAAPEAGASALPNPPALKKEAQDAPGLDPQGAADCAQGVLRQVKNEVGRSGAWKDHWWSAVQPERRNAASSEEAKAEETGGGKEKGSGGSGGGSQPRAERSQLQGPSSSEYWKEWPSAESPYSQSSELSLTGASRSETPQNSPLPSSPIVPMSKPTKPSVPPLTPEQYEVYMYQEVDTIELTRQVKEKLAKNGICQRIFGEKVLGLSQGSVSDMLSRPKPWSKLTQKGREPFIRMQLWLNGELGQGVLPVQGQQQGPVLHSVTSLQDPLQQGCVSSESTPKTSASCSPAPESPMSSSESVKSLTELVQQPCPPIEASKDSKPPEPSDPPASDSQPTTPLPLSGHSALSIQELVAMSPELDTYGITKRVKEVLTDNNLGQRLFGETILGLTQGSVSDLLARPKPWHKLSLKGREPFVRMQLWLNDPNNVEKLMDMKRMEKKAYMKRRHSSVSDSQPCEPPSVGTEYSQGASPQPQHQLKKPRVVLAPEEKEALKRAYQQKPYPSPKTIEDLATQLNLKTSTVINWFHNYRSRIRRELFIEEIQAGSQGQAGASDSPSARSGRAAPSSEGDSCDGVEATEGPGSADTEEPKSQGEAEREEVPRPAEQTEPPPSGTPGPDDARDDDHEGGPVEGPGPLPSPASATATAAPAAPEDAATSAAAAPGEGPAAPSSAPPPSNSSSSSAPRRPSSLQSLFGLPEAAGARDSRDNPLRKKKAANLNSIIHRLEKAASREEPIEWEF
UniProt P42330: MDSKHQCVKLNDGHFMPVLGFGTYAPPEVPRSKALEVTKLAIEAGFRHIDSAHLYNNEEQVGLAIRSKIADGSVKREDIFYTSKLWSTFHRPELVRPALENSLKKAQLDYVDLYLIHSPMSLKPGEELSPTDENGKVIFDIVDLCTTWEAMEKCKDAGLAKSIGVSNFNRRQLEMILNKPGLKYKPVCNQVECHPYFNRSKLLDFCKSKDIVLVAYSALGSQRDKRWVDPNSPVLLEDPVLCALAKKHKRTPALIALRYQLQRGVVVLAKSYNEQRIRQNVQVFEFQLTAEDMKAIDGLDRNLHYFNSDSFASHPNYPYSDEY
UniProt P34896: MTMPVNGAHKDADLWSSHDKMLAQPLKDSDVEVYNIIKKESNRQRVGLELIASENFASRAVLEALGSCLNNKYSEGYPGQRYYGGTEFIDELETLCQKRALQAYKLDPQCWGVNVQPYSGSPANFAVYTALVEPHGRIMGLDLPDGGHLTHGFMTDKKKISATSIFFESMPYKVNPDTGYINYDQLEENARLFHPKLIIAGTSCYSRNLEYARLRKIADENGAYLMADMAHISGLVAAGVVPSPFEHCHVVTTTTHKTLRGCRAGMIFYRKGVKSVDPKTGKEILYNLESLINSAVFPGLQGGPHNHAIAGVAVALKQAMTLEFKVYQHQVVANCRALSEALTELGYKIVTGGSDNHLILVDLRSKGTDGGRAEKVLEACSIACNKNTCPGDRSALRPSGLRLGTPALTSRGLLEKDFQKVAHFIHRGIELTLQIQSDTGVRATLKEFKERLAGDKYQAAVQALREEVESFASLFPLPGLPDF
UniProt P31939: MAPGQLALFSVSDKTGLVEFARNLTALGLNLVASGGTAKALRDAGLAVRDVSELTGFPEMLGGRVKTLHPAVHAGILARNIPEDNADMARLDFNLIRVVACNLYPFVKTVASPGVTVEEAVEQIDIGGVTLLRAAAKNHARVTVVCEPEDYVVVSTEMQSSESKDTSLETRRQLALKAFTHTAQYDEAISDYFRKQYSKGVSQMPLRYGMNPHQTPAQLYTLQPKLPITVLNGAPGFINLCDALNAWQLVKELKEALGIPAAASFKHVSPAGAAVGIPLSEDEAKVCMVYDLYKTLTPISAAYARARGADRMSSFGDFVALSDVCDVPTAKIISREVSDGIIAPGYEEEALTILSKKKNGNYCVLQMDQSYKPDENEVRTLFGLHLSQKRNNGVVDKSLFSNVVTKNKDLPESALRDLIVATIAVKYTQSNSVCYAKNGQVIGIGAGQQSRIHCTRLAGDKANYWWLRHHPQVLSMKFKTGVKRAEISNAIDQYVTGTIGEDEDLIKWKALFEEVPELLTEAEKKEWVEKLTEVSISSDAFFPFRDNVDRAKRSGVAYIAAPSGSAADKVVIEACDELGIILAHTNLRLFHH
UniProt P42331: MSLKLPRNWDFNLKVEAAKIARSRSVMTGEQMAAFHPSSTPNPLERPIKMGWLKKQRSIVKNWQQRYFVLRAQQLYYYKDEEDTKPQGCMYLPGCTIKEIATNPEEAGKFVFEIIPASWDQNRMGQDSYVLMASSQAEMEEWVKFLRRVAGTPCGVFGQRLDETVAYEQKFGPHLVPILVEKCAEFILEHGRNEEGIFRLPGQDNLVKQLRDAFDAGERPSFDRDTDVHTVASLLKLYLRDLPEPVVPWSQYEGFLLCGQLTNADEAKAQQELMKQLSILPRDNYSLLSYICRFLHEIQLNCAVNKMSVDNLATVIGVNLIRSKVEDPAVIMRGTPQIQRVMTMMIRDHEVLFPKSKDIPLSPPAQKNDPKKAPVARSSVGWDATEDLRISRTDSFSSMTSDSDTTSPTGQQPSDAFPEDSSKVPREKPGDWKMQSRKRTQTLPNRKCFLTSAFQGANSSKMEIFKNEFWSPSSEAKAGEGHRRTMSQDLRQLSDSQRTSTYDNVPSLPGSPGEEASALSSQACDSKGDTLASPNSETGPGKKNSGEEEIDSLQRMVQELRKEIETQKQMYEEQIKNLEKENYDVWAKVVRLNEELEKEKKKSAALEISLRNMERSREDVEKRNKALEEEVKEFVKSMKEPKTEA

These targets were tested with CN[C@@H]1C[C@H]2O[C@@](C)([C@@H]1OC)n1c3ccccc3c3c4c(c5c6ccccc6n2c5c31)C(=O)NC4 [staurosporine] (assay: log2 fold change of tryptic peptide abundance, ligand vs vehicle (limited proteolysis) (log2 ratio); higher = more trypsin-susceptible (destabilized)). Settings: ligand concentration: 20 uM; sample: K562 cleared lysate; digestion: 4 min, 22 C (HT-PELSA RT4min, Orbitrap Astral).

Row | Target | log2 fold change
1 | HADHA (peptide sequence: THINYGVKGDVAVVR, peptide start residue: 39) (UniProt P40939) | -0.912
2 | COL18A1 (peptide sequence: EETGAALKPR, peptide start residue: 679) (UniProt P39060) | 0.0952
3 | COIL (peptide sequence: QQQLNDVVK, peptide start residue: 436) (UniProt P38432) | -0.195
4 | NUP62 (peptide sequence: ILNAHMDSLQWIDQNSALLQR, peptide start residue: 477) (UniProt P37198) | 0.305
5 | RXRB (peptide sequence: VYASLETYCK, peptide start residue: 467) (UniProt P28702) | -0.289
6 | P41778 (peptide sequence: KCGITVSQVSNWFGNKR, peptide start residue: 283) (UniProt P40424) | -0.217
7 | RPS19 (peptide sequence: KLTPQGQR, peptide start residue: 122) (UniProt P39019) | 0.21
8 | UniProt P35030 (peptide sequence: DTLDNDIMLIK, peptide start residue: 159) | -0.0647
9 | SLC19A1 (peptide sequence: AAQALSVQDK, peptide start residue: 480) (UniProt P41440) | -0.206
10 | CUX1 (peptide sequence: KPSAAPEAGASALPNPPALKK, peptide start residue: 766) (UniProt P39880) | 0.508
11 | PPP2R1B (peptide sequence: ELVSDTNQHVK, peptide start residue: 344) (UniProt P30154) | 0.212
12 | HNRNPH3 (peptide sequence: LLGQRPGPYDRPIGGR, peptide start residue: 106) (UniProt P31942) | -0.459
13 | BSG (peptide sequence: GSDQAIITLR, peptide start residue: 308) (UniProt P35613) | 0.258
14 | CDA (peptide sequence: AVSEGYKDFR, peptide start residue: 74) (UniProt P32320) | 0.0493
15 | UniProt P42263 (peptide sequence: RIIEEMDRR, peptide start residue: 204) | 0.331
16 | ETFB (peptide sequence: YATLPNIMK, peptide start residue: 192) (UniProt P38117) | 0.132
17 | UniProt P30520 (peptide sequence: ELPVNAQNYVR, peptide start residue: 420) | 0.205
18 | CETN2 (peptide sequence: MNFGDFLTVMTQK, peptide start residue: 84) (UniProt P41208) | 0.151
19 | ACADSB (peptide sequence: LFDFQGLQHQVAHVATQLEAAR, peptide start residue: 326) (UniProt P45954) | -0.485
20 | RFC3 (peptide sequence: ELYGVGVEK, peptide start residue: 58) (UniProt P40938) | 0.381
21 | BMI1 (peptide sequence: CPAAMTVMHLR, peptide start residue: 166) (UniProt P35226) | -0.186
22 | LONP1 (peptide sequence: LKELVVPK, peptide start residue: 425) (UniProt P36776) | 0.249
23 | AKR1C3 (peptide sequence: SKDIVLVAYSALGSQR, peptide start residue: 208) (UniProt P42330) | -0.281
24 | SHMT1 (peptide sequence: DADLWSSHDK, peptide start residue: 11) (UniProt P34896) | 0.214
25 | SRI (peptide sequence: QHFISFDTDRSGTVDPQELQK, peptide start residue: 107) (UniProt P30626) | 0.306
26 | ATIC (peptide sequence: EALGIPAAASFK, peptide start residue: 255) (UniProt P31939) | -0.191
27 | PSMB10 (peptide sequence: GGFSFENCQR, peptide start residue: 10) (UniProt P40306) | 0.277
28 | ARHGAP25 (peptide sequence: ALEEEVKEFVK, peptide start residue: 626) (UniProt P42331) | -0.223

Given tab-delimited: entries from further up.
Row	Target	log2 fold change
9	SLC19A1 (peptide sequence: AAQALSVQDK, peptide start residue: 480) (UniProt P41440)	-0.206
26	ATIC (peptide sequence: EALGIPAAASFK, peptide start residue: 255) (UniProt P31939)	-0.191
